No constants are given. Whether binding was seen depends on the method and setting. Some binding calls cover weakened binding; strength is not graded here. Values belong to the binder of their own block, whether it stands above or below them.
Tests used:
[1] = target: T1, FGF-8 (manufactured by R&D) (UniProt P55075); test: BIAcore 2000, FGF-8 amine-coupled on CM-5, antibody in solution, RU height compared; dissociation hardly observed
T1 sequence (looked up): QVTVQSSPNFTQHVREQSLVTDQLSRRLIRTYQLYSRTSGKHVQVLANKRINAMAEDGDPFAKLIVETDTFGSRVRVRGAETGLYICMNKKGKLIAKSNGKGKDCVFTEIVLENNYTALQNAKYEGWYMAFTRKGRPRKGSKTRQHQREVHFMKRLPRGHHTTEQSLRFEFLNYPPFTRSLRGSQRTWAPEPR

[2] = target: T1, FGF-8 (manufactured by R&D); test: BIAcore 2000, FGF-8 on CM-5 (results of Example 4 told again)
[3] = target: T1, FGF-8 (manufactured by R&D); test: BIAcore 2000, FGF-8 on CM-5 (result of item 7 of Example 4 told again)
[4] = target: T2, C-terminus-biotin labeled compound 1 (an N-terminus peptide of FGF-8) (human); test: BIAcore 2000, biotin FGF-8 peptide on SA chip (result told again)
T2 sequence (peptide, C-terminus biotin label): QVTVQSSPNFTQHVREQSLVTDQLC

[5] = target: T2, C-terminus-biotin labeled compound 1 (an N-terminus peptide of FGF-8) (human); test: BIAcore 2000, biotin FGF-8 peptide on SA chip, antibody in solution, RU compared; dissociation hardly observed
[6] = target: T3, FGF-8 protein purified from a culture broth of the mouse breast cancer cell line SC-3 at the time of testosterone stimulation (mouse) (UniProt P37237); test: Western blotting of purified FGF-8 after SDS-PAGE, antibody at 10 ug/ml
T3 sequence (sugar chains (band of around 30 K dalton against a theoretical 22 K dalton), looked up): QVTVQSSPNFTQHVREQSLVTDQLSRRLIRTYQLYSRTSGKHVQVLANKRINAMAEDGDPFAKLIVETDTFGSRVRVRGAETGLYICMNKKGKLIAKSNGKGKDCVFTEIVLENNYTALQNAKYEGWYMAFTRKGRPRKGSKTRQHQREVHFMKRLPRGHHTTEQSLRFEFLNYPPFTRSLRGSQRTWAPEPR

[7] = target: T2, C-terminus-biotin labeled compound 1 (an N-terminus peptide of FGF-8) (human); test: BIAcore 2000, biotin FGF-8 peptide on SA chip, Example 6, RU compared; dissociation hardly observed

B1: anti-FGF-8 CDR-grafted antibody HV0LV6 (YB2/0 cell-derived) (antibody, V domains shown)
VH: QVQLVQSGAEVKKPGASVKVSCKASGYTFTDYYLNWVRQAPGQGLEWMGEIDPGSDSIYYNENLEGRVTITADTSTSTAYMELSSLRSEDTAVYYCARYGYSRYDVRFVYWGQGTLVTVSS
VL: DVVMTQSPLSLPVSLGEPASISCRSSQSLVHSNGRTYLEWYLQKPGQSPKVLIYKVSNRISGVPDRFSGSGSGTDFTLKISRVEAEDVGVYFCFQGSHVPYTFGQGTKVEIK
notes: also called KM8037; FERM BP-8084
binding [1]: binds
binding [2]: binds
binding [3]: binds

B2: anti-FGF-8 CDR-grafted antibody HV0LV2-1/CHO (antibody, V domains shown)
VH: QVQLVQSGAEVKKPGASVKVSCKASGYTFTDYYLNWVRQAPGQGLEWMGEIDPGSDSIYYNENLEGRVTITADTSTSTAYMELSSLRSEDTAVYYCARYGYSRYDVRFVYWGQGTLVTVSS
VL: DIVMTQSPLSLPVTPGEPASISCRSSQSLVHSNGRTYLEWYLQKPGQSPQVLIYKVSNRISGVPDRFSGSGSGTDFTLKISRVEAEDVGVYFCFQGSHVPYTFGQGTKVEIK
binding [4]: binds
binding [5]: binds

B3: anti-FGF-8 CDR-grafted antibody HV0LV4-1/CHO (antibody, V domains shown)
VH: QVQLVQSGAEVKKPGASVKVSCKASGYTFTDYYLNWVRQAPGQGLEWMGEIDPGSDSIYYNENLEGRVTITADTSTSTAYMELSSLRSEDTAVYYCARYGYSRYDVRFVYWGQGTLVTVSS
VL: DVVMTQSPLSLPVTPGEPASISCRSSQSLVHSNGRTYLEWYLQKPGQSPKVLIYKVSNRISGVPDRFSGSGSGTDFTLKISRVEAEDVGVYFCFQGSHVPYTFGQGTKVEIK
binding [4]: binds
binding [5]: binds

B6: anti-FGF-8 CDR-grafted antibody HV0LV3-3/CHO (antibody, V domains shown)
VH: QVQLVQSGAEVKKPGASVKVSCKASGYTFTDYYLNWVRQAPGQGLEWMGEIDPGSDSIYYNENLEGRVTITADTSTSTAYMELSSLRSEDTAVYYCARYGYSRYDVRFVYWGQGTLVTVSS
VL: DIVMTQSPLSLPVSLGEPASISCRSSQSLVHSNGRTYLEWYLQKPGQSPQVLIYKVSNRISGVPDRFSGSGSGTDFTLKISRVEAEDVGVYYCFQGSHVPYTFGQGTKVEIK
binding [7]: binds

Continued, values first:

binding [1]: binds
B4: anti-FGF-8 chimeric antibody KM3334 (antibody, V domains shown)
VH: QVQLQQSGAEVARPGASVKLSCKASGYTFTDYYLNWVKQRSGQGLEWIGEIDPGSDSIYYNENLEGRATLTADKSSSTAYMQLNSLTSEDSAVYFCARYGYSRYDVRFVYWGQGTLVTVST
VL: DVLMTQTPLSLPVSLGDQASISCRSSQSLVHSNGRTYLEWYLQKPGQSPKVLIYKVSNRISGVPDRFSGSGSGTDFTLKISRVEAEDLGVYFCFQGSHVPYTFGGGTKLEIK

binding [6]: binds
B5: anti-FGF-8 monoclonal antibody KM 1334 (antibody, mouse IgG1, V domains shown)
VH: QVQLQQSGAEVARPGASVKLSCKASGYTFTDYYLNWVKQRSGQGLEWIGEIDPGSDSIYYNENLEGRATLTADKSSSTAYMQLNSLTSEDSAVYFCARYGYSRYDVRFVYWGQGTLVTVST
VL: DVLMTQTPLSLPVSLGDQASISCRSSQSLVHSNGRTYLEWYLQKPGQSPKVLIYKVSNRISGVPDRFSGSGSGTDFTLKISRVEAEDLGVYFCFQGSHVPYTFGGGTKLEIK
notes: Mouse IgG1, kappa L chain, purified from ascites; also called anti-FGF-8 mouse antibody KM1334; antibody of hybridoma FERM BP-5451

binding [1]: binds
B7: anti-FGF-8 CDR-grafted antibody HV0LV0 (YB2/0 cell-derived) (antibody, V domains shown)
VH: QVQLVQSGAEVKKPGASVKVSCKASGYTFTDYYLNWVRQAPGQGLEWMGEIDPGSDSIYYNENLEGRVTITADTSTSTAYMELSSLRSEDTAVYYCARYGYSRYDVRFVYWGQGTLVTVSS
VL: DIVMTQSPLSLPVTPGEPASISCRSSQSLVHSNGRTYLEWYLQKPGQSPQLLIYKVSNRISGVPDRFSGSGSGTDFTLKISRVEAEDVGVYYCFQGSHVPYTFGQGTKVEIK

binding [1]: binds
B8: anti-FGF-8 CDR-grafted antibody HV6LV6 (YB2/0 cell-derived) (antibody, V domains shown)
VH: QVQLVQSGAEVARPGASVKVSCKASGYTFTDYYLNWVRQRSGQGLEWIGEIDPGSDSIYYNENLEGRVTITADTSTSTAYMELSSLRSEDTAVYFCARYGYSRYDVRFVYWGQGTLVTVSS
VL: DVVMTQSPLSLPVSLGEPASISCRSSQSLVHSNGRTYLEWYLQKPGQSPKVLIYKVSNRISGVPDRFSGSGSGTDFTLKISRVEAEDVGVYFCFQGSHVPYTFGQGTKVEIK
